The list shows a part of the results.
Experiments:
Experiment in all cases: glycan array binding signal (z-score within array); higher = stronger binding
Details in all cases: glycan notation: IUPAC condensed, linker removed
[1] = biological target: GlcNAc(b1-3)Gal(b1-4)GlcNAc
Outline: (§1)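 Glycan array binding is given as a within-array Z-score, which can be read as non-binding when negative. The arrays, 3228 of them, came from the Consortium for Functional Glycomics database and were retained only where the protein sequence was available. Z-scores were averaged across arrays of the same protein sequence at different concentrations or buffers and across linkers.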

[2] = biological target: GlcNAc(b1-3)Gal(b1-4)GlcNAc(b1-2)Man(a1-3)[GlcNAc(b1-3)Gal(b1-4)GlcNAc(b1-2)Man(a1-6)]Man(b1-4)GlcNAc(b1-4)GlcNAc
Outline: as §1

[3] = biological target: GlcNAc(b1-3)Gal(b1-4)GlcNAc(b1-2)Man(a1-3)[GlcNAc(b1-3)Gal(b1-4)GlcNAc(b1-2)Man(a1-6)]Man(b1-4)GlcNAc(b1-4)[Fuc(a1-6)]GlcNAc
Outline: as §1

[4] = biological target: GlcNAc(b1-3)Gal(b1-4)GlcNAc(b1-2)[GlcNAc(b1-3)Gal(b1-4)GlcNAc(b1-6)]Man(a1-6)[GlcNAc(b1-3)Gal(b1-4)GlcNAc(b1-2)Man(a1-3)]Man(b1-4)GlcNAc(b1-4)GlcNAc
Outline: as §1

[5] = biological target: GlcNAc(b1-3)Gal(b1-4)GlcNAc(b1-3)Gal(b1-4)GlcNAc
Outline: as §1

[6] = biological target: GlcNAc(b1-3)Gal(b1-4)GlcNAc(b1-3)Gal(b1-4)GlcNAc(b1-2)Man(a1-3)[GlcNAc(b1-3)Gal(b1-4)GlcNAc(b1-3)Gal(b1-4)GlcNAc(b1-2)Man(a1-6)]Man(b1-4)GlcNAc(b1-4)GlcNAc
Outline: as §1

[7] = biological target: GlcNAc(b1-3)Gal(b1-4)GlcNAc(b1-3)Gal(b1-4)GlcNAc(b1-2)Man(a1-3)[GlcNAc(b1-3)Gal(b1-4)GlcNAc(b1-3)Gal(b1-4)GlcNAc(b1-2)Man(a1-6)]Man(b1-4)GlcNAc(b1-4)[Fuc(a1-6)]GlcNAc
Outline: as §1

[8] = biological target: GlcNAc(b1-3)Gal(b1-4)GlcNAc(b1-3)Gal(b1-4)GlcNAc(b1-2)[GlcNAc(b1-3)Gal(b1-4)GlcNAc(b1-3)Gal(b1-4)GlcNAc(b1-6)]Man(a1-6)[GlcNAc(b1-3)Gal(b1-4)GlcNAc(b1-3)Gal(b1-4)GlcNAc(b1-2)Man(a1-3)]Man(b1-4)GlcNAc(b1-4)[Fuc(a1-6)]GlcNAc
Outline: as §1

[9] = biological target: GlcNAc(b1-3)Gal(b1-4)GlcNAc(b1-3)Gal(b1-4)GlcNAc(b1-3)Gal(b1-4)GlcNAc(b1-2)Man(a1-3)[GlcNAc(b1-3)Gal(b1-4)GlcNAc(b1-3)Gal(b1-4)GlcNAc(b1-3)Gal(b1-4)GlcNAc(b1-2)Man(a1-6)]Man(b1-4)GlcNAc(b1-4)GlcNAc
Outline: as §1

[10] = biological target: GlcNAc(b1-3)Gal(b1-4)GlcNAc(b1-3)Gal(b1-4)GlcNAc(b1-3)Gal(b1-4)GlcNAc(b1-2)Man(a1-3)[GlcNAc(b1-3)Gal(b1-4)GlcNAc(b1-3)Gal(b1-4)GlcNAc(b1-3)Gal(b1-4)GlcNAc(b1-2)Man(a1-6)]Man(b1-4)GlcNAc(b1-4)[Fuc(a1-6)]GlcNAc
Outline: as §1

[11] = biological target: GlcNAc(b1-3)Gal(b1-4)GlcNAc(b1-3)Gal(b1-4)GlcNAc(b1-3)Gal(b1-4)GlcNAc(b1-2)[GlcNAc(b1-3)Gal(b1-4)GlcNAc(b1-3)Gal(b1-4)GlcNAc(b1-3)Gal(b1-4)GlcNAc(b1-6)]Man(a1-6)[GlcNAc(b1-3)Gal(b1-4)GlcNAc(b1-3)Gal(b1-4)GlcNAc(b1-3)Gal(b1-4)GlcNAc(b1-2)Man(a1-3)]Man(b1-4)GlcNAc(b1-4)[Fuc(a1-6)]GlcNAc
Outline: as §1

[12] = biological target: GlcNAc(b1-3)Gal(b1-4)GlcNAc(b1-3)Gal(b1-4)GlcNAc(b1-3)Gal(b1-4)GlcNAc(b1-3)Gal(b1-4)GlcNAc(b1-2)Man(a1-3)[GlcNAc(b1-3)Gal(b1-4)GlcNAc(b1-3)Gal(b1-4)GlcNAc(b1-3)Gal(b1-4)GlcNAc(b1-3)Gal(b1-4)GlcNAc(b1-2)Man(a1-6)]Man(b1-4)GlcNAc(b1-4)GlcNAc
Outline: as §1

[13] = biological target: GlcNAc(b1-3)Gal(b1-4)GlcNAc(b1-3)Gal(b1-4)GlcNAc(b1-3)Gal(b1-4)GlcNAc(b1-3)Gal(b1-4)GlcNAc(b1-2)Man(a1-3)[GlcNAc(b1-3)Gal(b1-4)GlcNAc(b1-3)Gal(b1-4)GlcNAc(b1-3)Gal(b1-4)GlcNAc(b1-3)Gal(b1-4)GlcNAc(b1-2)Man(a1-6)]Man(b1-4)GlcNAc(b1-4)[Fuc(a1-6)]GlcNAc
Outline: as §1

[14] = biological target: GlcNAc(b1-3)Gal(b1-4)GlcNAc(b1-3)Gal(b1-4)GlcNAc(b1-3)Gal(b1-4)GlcNAc(b1-3)Gal(b1-4)GlcNAc(b1-2)[GlcNAc(b1-3)Gal(b1-4)GlcNAc(b1-3)Gal(b1-4)GlcNAc(b1-3)Gal(b1-4)GlcNAc(b1-3)Gal(b1-4)GlcNAc(b1-6)]Man(a1-6)[GlcNAc(b1-3)Gal(b1-4)GlcNAc(b1-3)Gal(b1-4)GlcNAc(b1-3)Gal(b1-4)GlcNAc(b1-3)Gal(b1-4)GlcNAc(b1-2)Man(a1-3)]Man(b1-4)GlcNAc(b1-4)[Fuc(a1-6)]GlcNAc
Outline: as §1

[15] = biological target: GlcNAc(b1-3)Gal(b1-4)GlcNAc(b1-3)Gal(b1-4)GlcNAc(b1-3)GalNAc
Outline: as §1

[16] = biological target: GlcNAc(b1-3)Gal(b1-4)GlcNAc(b1-3)GalNAc
Outline: as §1

[17] = biological target: GlcNAc(b1-3)Gal(b1-4)GlcNAc(b1-3)[GlcNAc(b1-3)Gal(b1-4)GlcNAc(b1-3)]GalNAc
Outline: as §1

[18] = biological target: GlcNAc(b1-3)Gal(b1-4)GlcNAc(b1-6)[Gal(b1-3)]GalNAc
Outline: as §1

[19] = biological target: GlcNAc(b1-3)Gal(b1-4)GlcNAc(b1-6)[GlcNAc(b1-3)Gal(b1-3)]GalNAc
Outline: as §1

[20] = biological target: GlcNAc(b1-3)Gal(b1-4)GlcNAc(b1-6)[GlcNAc(b1-3)]Gal(b1-4)GlcNAc
Outline: as §1

GlcNAc(b1-3)GalNAc = biological target: GlcNAc(b1-3)GalNAc
Outline: as §1

GlcNAc(b1-3)Man = biological target: GlcNAc(b1-3)Man
Outline: as §1

[21] = biological target: GlcNAc(b1-3)[GlcNAc(b1-4)][GlcNAc(b1-6)]GlcNAc
Outline: as §1

[22] = biological target: GlcNAc(b1-3)[GlcNAc(b1-6)]Gal(b1-4)GlcNAc
Outline: as §1

[23] = biological target: GlcNAc(b1-3)[GlcNAc(b1-6)]GalNAc
Outline: as §1

[24] = biological target: GlcNAc(b1-4)Gal(b1-4)GlcNAc
Outline: as §1

GlcNAc(b1-4)GlcNAc = biological target: GlcNAc(b1-4)GlcNAc
Outline: as §1

[25] = biological target: GlcNAc(b1-4)GlcNAc(b1-4)GlcNAc
Outline: as §1

[26] = biological target: GlcNAc(b1-4)GlcNAc(b1-4)GlcNAc(b1-4)GlcNAc(b1-4)GlcNAc
Outline: as §1

[27] = biological target: GlcNAc(b1-4)GlcNAc(b1-4)GlcNAc(b1-4)GlcNAc(b1-4)GlcNAc(b1-4)GlcNAc
Outline: as §1

[28] = biological target: GlcNAc(b1-4)[GlcNAc(b1-6)]GalNAc
Outline: as §1

[29] = biological target: GlcNAc(b1-6)Gal(b1-4)GlcNAc
Outline: as §1

GlcNAc(b1-6)GalNAc = biological target: GlcNAc(b1-6)GalNAc
Outline: as §1

[30] = biological target: GlcNAc6S(b1-3)Gal(b1-4)GlcNAc
Outline: as §1

Kdn(a2-3)Gal(b1-3)GalNAc = biological target: Kdn(a2-3)Gal(b1-3)GalNAc
Outline: as §1

Kdn(a2-3)Gal(b1-3)GlcNAc = biological target: Kdn(a2-3)Gal(b1-3)GlcNAc
Outline: as §1

Kdn(a2-3)Gal(b1-4)Glc = biological target: Kdn(a2-3)Gal(b1-4)Glc
Outline: as §1

Kdn(a2-3)Gal(b1-4)GlcNAc = biological target: Kdn(a2-3)Gal(b1-4)GlcNAc
Outline: as §1

[31] = biological target: Kdn(a2-3)Gal(b1-4)[Fuc(a1-3)]GlcNAc
Outline: as §1

Kdn(a2-6)Gal(b1-4)GlcNAc = biological target: Kdn(a2-6)Gal(b1-4)GlcNAc
Outline: as §1

[32] = biological target: Man(a1-2)Man(a1-2)Man(a1-3)Man
Outline: as §1

[33] = biological target: Man(a1-2)Man(a1-2)Man(a1-6)[Man(a1-3)]Man
Outline: as §1

Man(a1-2)Man(a1-3)Man = biological target: Man(a1-2)Man(a1-3)Man
Outline: as §1

[34] = biological target: Man(a1-2)Man(a1-3)[Man(a1-2)Man(a1-6)]Man
Outline: as §1

[35] = biological target: Man(a1-2)Man(a1-3)[Man(a1-2)Man(a1-6)]Man(a1-6)[Man(a1-2)Man(a1-2)Man(a1-3)]Man
Outline: as §1

B1: Pbx2CASH domain (Cryptococcus neoformans) (protein)
chain: GIPGPNRLYRLSGPIIFTAADQEIATYGYPTGSERAVLRVEGRNTATAIQGDCRRCARVSVKNLVVDGNRKKLGRMRDFQLATGLVVLGGNEGQSIQNSWIKNPRGFTAIHIREGDKLQCSGARVEKNEIGPVGEEYDPEKDGDDPEMSPLGRPLADGVSIACRDSFIRDNTFRDNTDAAIVVYCSPGTLIHA
[1]
  glycan array binding signal (z-score): -0.534
[2]
  glycan array binding signal (z-score): -0.118
[3]
  glycan array binding signal (z-score): -0.072
[4]
  glycan array binding signal (z-score): 1.44
[5]
  glycan array binding signal (z-score): -0.766
[6]
  glycan array binding signal (z-score): 1.5
[7]
  glycan array binding signal (z-score): 0.592
[8]
  glycan array binding signal (z-score): 1.47
[9]
  glycan array binding signal (z-score): 0.656
[10]
  glycan array binding signal (z-score): 0.339
[11]
  glycan array binding signal (z-score): 1.64
[12]
  glycan array binding signal (z-score): -0.177
[13]
  glycan array binding signal (z-score): -0.255
[14]
  glycan array binding signal (z-score): 1.04
[15]
  glycan array binding signal (z-score): 0.639
[16]
  glycan array binding signal (z-score): -0.708
[17]
  glycan array binding signal (z-score): -0.221
[18]
  glycan array binding signal (z-score): -0.855
[19]
  glycan array binding signal (z-score): -0.16
[20]
  glycan array binding signal (z-score): 0.085
GlcNAc(b1-3)GalNAc
  glycan array binding signal (z-score): -0.111
GlcNAc(b1-3)Man
  glycan array binding signal (z-score): -0.258
[21]
  glycan array binding signal (z-score): -0.155
[22]
  glycan array binding signal (z-score): -0.258
[23]
  glycan array binding signal (z-score): -0.565
[24]
  glycan array binding signal (z-score): -0.297
GlcNAc(b1-4)GlcNAc
  glycan array binding signal (z-score): -0.629
[25]
  glycan array binding signal (z-score): -0.153
[26]
  glycan array binding signal (z-score): -0.108
[27]
  glycan array binding signal (z-score): -0.04
[28]
  glycan array binding signal (z-score): -0.723
[29]
  glycan array binding signal (z-score): -0.858
GlcNAc(b1-6)GalNAc
  glycan array binding signal (z-score): -0.438
[30]
  glycan array binding signal (z-score): -0.579
Kdn(a2-3)Gal(b1-3)GalNAc
  glycan array binding signal (z-score): -0.335
Kdn(a2-3)Gal(b1-3)GlcNAc
  glycan array binding signal (z-score): 1.29
Kdn(a2-3)Gal(b1-4)Glc
  glycan array binding signal (z-score): -0.029
Kdn(a2-3)Gal(b1-4)GlcNAc
  glycan array binding signal (z-score): 0.049
[31]
  glycan array binding signal (z-score): 0.079
Kdn(a2-6)Gal(b1-4)GlcNAc
  glycan array binding signal (z-score): -0.478
[32]
  glycan array binding signal (z-score): -0.78
[33]
  glycan array binding signal (z-score): -0.569
Man(a1-2)Man(a1-3)Man
  glycan array binding signal (z-score): -0.411
[34]
  glycan array binding signal (z-score): -0.667
[35]
  glycan array binding signal (z-score): -0.401

Source: the supplement of paper PMC8728848
